{"source": "PubChem BioAssay AID720505 (Drosophila RNAi Screening Center, 2013)", "screen": "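Genes needed for store-operated calcium entry in fly cells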 (primary screen)", "cells": "Drosophila S2R+ cells", "knock-down reagent": "long dsRNA against Drosophila genes", "challenge": "thapsigargin (2 µM) in calcium-free buffer to empty internal stores, then 2 mM calcium added back", "read-out": "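Fluo-4 signal in 384-well plates read on a FLIPR after thapsigargin (2 µM, calcium-free) store depletion and 2 mM calcium add-back; unnormalised mean endpoint per well; screen run twice, selected wells retested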", "reading the numbers": "calcium signal and retest calcium signal: higher = more calcium entry after store depletion", "call rule": "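Knock-downs counted as hits when calcium entry dropped relative to STIM1 positive and Rho1 negative controls present on each plate; roughly 1500 genes called, with reductions of differing size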", "calls": "active = called as lowering calcium entry; inactive = not called", "note": "The deposit covers about 20,000 reagents; below is an unselected part of those with a known target gene and a result. In the full data, about 2,100 (10%) were called active. 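Raw plate signals without normalisation; calls rest on control-based scores that were not deposited; replicate 2 separates called from uncalled poorly.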 The numbers tell different reagents against one gene apart. No sequences are given here. Not given: the amount of reagent, the time to read-out."}
{"Target gene": "CG7227 (GeneID 34088)", "dsRNA no.": 1, "calcium signal, replicate 1": 119, "calcium signal, replicate 2": 191, "Call": "inactive"}
{"Target gene": "Cul3 (GeneID 34896)", "dsRNA no.": 1, "calcium signal, replicate 1": 128, "calcium signal, replicate 2": 117, "Call": "inactive"}
{"Target gene": "Cul3 (GeneID 34896)", "dsRNA no.": 2, "calcium signal, replicate 1": 108, "calcium signal, replicate 2": 108, "Call": "inactive"}
{"Target gene": "shd (GeneID 39592)", "dsRNA no.": 1, "calcium signal, replicate 1": 71.5, "calcium signal, replicate 2": 189, "Call": "inactive"}
{"Target gene": "a6 (GeneID 31127)", "dsRNA no.": 1, "calcium signal, replicate 1": 87.9, "calcium signal, replicate 2": 102, "Call": "inactive"}

The list goes on (2 carried over from the part before).
{"Target gene": "shd (GeneID 39592)", "dsRNA no.": 1, "calcium signal, replicate 1": 71.5, "calcium signal, replicate 2": 189, "Call": "inactive"}
{"Target gene": "a6 (GeneID 31127)", "dsRNA no.": 1, "calcium signal, replicate 1": 87.9, "calcium signal, replicate 2": 102, "Call": "inactive"}
{"Target gene": "CG7882 (GeneID 35520)", "dsRNA no.": 1, "calcium signal, replicate 1": 123, "calcium signal, replicate 2": 158, "Call": "inactive"}
{"Target gene": "Pcyt2 (GeneID 38180)", "dsRNA no.": 1, "calcium signal, replicate 1": 133, "calcium signal, replicate 2": 122, "Call": "inactive"}
{"Target gene": "CG1737 (GeneID 32077)", "dsRNA no.": 1, "calcium signal, replicate 1": 148, "calcium signal, replicate 2": 162, "Call": "inactive"}
{"Target gene": "svp (GeneID 41491)", "dsRNA no.": 1, "calcium signal, replicate 1": 62, "calcium signal, replicate 2": 89.6, "Call": "active"}
{"Target gene": "svp (GeneID 41491)", "dsRNA no.": 2, "calcium signal, replicate 1": 110, "calcium signal, replicate 2": 74.2, "retest calcium signal, replicate 1": 8447, "retest calcium signal, replicate 2": 152, "Call": "inactive"}
{"Target gene": "LamC (GeneID 36615)", "dsRNA no.": 1, "calcium signal, replicate 1": 186, "calcium signal, replicate 2": 123, "Call": "inactive"}
{"Target gene": "CG2955 (GeneID 33622)", "dsRNA no.": 1, "calcium signal, replicate 1": 117, "calcium signal, replicate 2": 219, "Call": "inactive"}
